US12365643B2, “Phenoxy carboxylic acid compounds and medical uses thereof” (QINGDAO RISING BIOTECHNOLOGY CO., LTD, priority 2018, dated 2025)
For some assays here: At least one compound was matched to its structure with a doubt left. Some of these results come from one statement about several compounds together.

Legend:
[1] = system: L02 human normal hepatocytes; test: Cytotoxicity by SRB method; assay type: cell-based; details: 10 μM, 24 hours, L02 cells, relative to DMSO control (FIG. 1)
PPARα = PPARα mRNA expression by real-time quantitative PCR in HepG2; assay type: cell-based, human; details: 1 μM, 6 hours, HepG2 (FIG. 5A)
db/db mice = test: Diabetes mellitus model (db/db mice); assay type: in vivo, mouse; details: intragastric once a day for 28 days, 50 mg/kg (pioglitazone 6 mg/kg) (FIGS. 8A-8B)
Description: Animal model: C57BL/KsJ-leprdb/leprdb diabetic (db/db) mice were widely used as animal models of type 2 diabetes mellitus, in which spontaneous mutations of leptin receptor (Leptin receptor, Lepr) caused extreme obesity, polyphagia, diabetes and polyuria. In this experiment, db/db mice (purchased from the Department of Animals, Health Science Center of Peking University) were selected. In the experiment, 28 db/db mice were used, and the animals with blood glucose of about 7-13 mmol/L were selected. […] Intragastric administration was adopted with an administration volume of 10 ml/kg. […] The administration was performed once a day for 28 consecutive days. From the day of oral administration, the physiological changes of the animals were observed every day. Blood glucose was measured every 3 days (Roche blood glucose meter) and blood glucose difference (Δ) was calculated by the following formula: blood glucose difference (Δ)=the blood glucose of the day—the initial blood glucose (the initial blood glucose difference was zero). […]

Row | Compound | relative cell viability [1] | induction of PPARα mRNA expression (PPARα) | fat content in the liver (Oil red O and H.E. staining) (db/db mice)
1 | Cc1cc(OCCCC(C)(C)C(=O)O)c(C)cc1Cl [BJMU-1, 5-(4-chloro-2,5-dimethylphenoxy)-2,2-dimethylpentanoic acid] | greater than 70% | more than 1.5 times | –
2 | Cc1cc(OCCCC(C)(C)C(=O)O)c(C)cc1Br [BJMU-2, 5-(4-bromo-2,5-dimethylphenoxy)-2,2-dimethylpentanoic acid] | greater than 70% | more than 1.5 times | –
3 | Cc1cc(OCCCC(C)(C)C(=O)O)c(C)cc1F [BJMU-3, 5-(4-fluoro-2,5-dimethylphenoxy)-2,2-dimethylpentanoic acid] | greater than 70% | more than 1.5 times | –
4 | Cc1cc([N+](=O)[O-])c(C)cc1OCCCC(C)(C)C(=O)O [BJMU-110, 5-(2,5-dimethyl-4-nitrophenoxy)-2,2-dimethylpentanoic acid] | greater than 70% | – | –
5 | Cc1cc(OCCC(C)(C)C(=O)O)c(C)cc1Br [BJMU-111, 4-(4-bromo-2,5-dimethylphenoxy)-2,2-dimethylbutanoic acid] | greater than 70% | – | –
6 | COc1cc(OCCCC(C)(C)C(=O)O)c(OC)cc1Br [BJMU-201, 5-(4-bromo-2,5-dimethoxyphenoxy)-2,2-dimethylpentanoic acid] | greater than 70% | – | –
7 | Cc1ccc(C)c(OCCCC(C)(C)C(=O)O)c1Cl [BJMU-209, 5-(2-chloro-3,6-dimethylphenoxy)-2,2-dimethylpentanoic acid] | greater than 70% | – | –
8 | Cc1cc(F)c(C)c(OCCCC(C)(C)C(=O)O)c1 [BJMU-213, 5-(3-fluoro-2,5-dimethylphenoxy)-2,2-dimethylpentanoic acid] | greater than 70% | – | –
9 | Cc1ccc(C)c(OCCCC(C)(C)C(=O)O)c1Br [BJMU-404, 5-(2-bromo-3,6-dimethylphenoxy)-2,2-dimethylpentanoic acid] | greater than 70% | more than 1.5 times | –
10 | Cc1cc(Br)c(C)c(C)c1OCCCC(C)(C)C(=O)O [BJMU-409, 5-(4-bromo-2,3,6-trimethylphenoxy)-2,2-dimethylpentanoic acid] | greater than 70% | more than 1.5 times | –
11 | Cc1cc(Br)c(C)c(O)c1OCCCC(C)(C)C(=O)O [BJMU-415, 5-(4-bromo-2-hydroxy-3,6-dimethylphenoxy)-2,2-dimethylpentanoic acid] | greater than 70% | – | –
12 | Cc1cc(OCCCC(C)(C)C(=O)O)c(C)c(O)c1Br [BJMU-416, 5-(4-bromo-3-hydroxy-2,5-dimethylphenoxy)-2,2-dimethylpentanoic acid] | greater than 70% | more than 1.5 times | –
13 | Cc1cc(OCCCC(C)(C)C(=O)O)c(CO)cc1Br [BJMU-502, 5-(4-bromo-2-(hydroxymethyl)-5-methylphenoxy)-2,2-dimethylpentanoic acid] | greater than 70% | – | –
14 | CCc1ccc(CCOc2ccc(CC3SC(=O)NC3=O)cc2)nc1 (centres unmarked) [Pioglitazone, pioglitazone] | – | – | neither gemfibrozil nor pioglitazone showed the above activity
